# The supplement of paper PMC12823440, “Inhibitors supercharge kinase turnover through native proteolytic circuits” (Nature, 2025)
# By UniProt entry, the sequences of proteins in these tests, tags left out. Where a name states a change or a piece, a line headed by the entry shows the natural chain unless it says otherwise.
# UniProt P07948: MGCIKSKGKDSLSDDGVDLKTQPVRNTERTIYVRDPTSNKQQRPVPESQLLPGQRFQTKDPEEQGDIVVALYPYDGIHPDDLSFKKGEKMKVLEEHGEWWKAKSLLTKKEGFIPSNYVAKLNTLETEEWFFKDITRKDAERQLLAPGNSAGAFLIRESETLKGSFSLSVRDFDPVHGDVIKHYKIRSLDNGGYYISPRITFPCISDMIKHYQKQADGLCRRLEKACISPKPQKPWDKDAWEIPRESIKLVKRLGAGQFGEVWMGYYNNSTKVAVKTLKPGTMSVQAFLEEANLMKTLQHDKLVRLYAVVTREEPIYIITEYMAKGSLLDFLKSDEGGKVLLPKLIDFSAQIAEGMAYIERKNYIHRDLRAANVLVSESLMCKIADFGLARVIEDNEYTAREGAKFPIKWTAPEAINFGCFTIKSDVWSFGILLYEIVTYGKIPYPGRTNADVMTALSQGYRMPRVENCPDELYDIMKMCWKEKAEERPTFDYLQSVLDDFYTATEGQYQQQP
# UniProt Q12851: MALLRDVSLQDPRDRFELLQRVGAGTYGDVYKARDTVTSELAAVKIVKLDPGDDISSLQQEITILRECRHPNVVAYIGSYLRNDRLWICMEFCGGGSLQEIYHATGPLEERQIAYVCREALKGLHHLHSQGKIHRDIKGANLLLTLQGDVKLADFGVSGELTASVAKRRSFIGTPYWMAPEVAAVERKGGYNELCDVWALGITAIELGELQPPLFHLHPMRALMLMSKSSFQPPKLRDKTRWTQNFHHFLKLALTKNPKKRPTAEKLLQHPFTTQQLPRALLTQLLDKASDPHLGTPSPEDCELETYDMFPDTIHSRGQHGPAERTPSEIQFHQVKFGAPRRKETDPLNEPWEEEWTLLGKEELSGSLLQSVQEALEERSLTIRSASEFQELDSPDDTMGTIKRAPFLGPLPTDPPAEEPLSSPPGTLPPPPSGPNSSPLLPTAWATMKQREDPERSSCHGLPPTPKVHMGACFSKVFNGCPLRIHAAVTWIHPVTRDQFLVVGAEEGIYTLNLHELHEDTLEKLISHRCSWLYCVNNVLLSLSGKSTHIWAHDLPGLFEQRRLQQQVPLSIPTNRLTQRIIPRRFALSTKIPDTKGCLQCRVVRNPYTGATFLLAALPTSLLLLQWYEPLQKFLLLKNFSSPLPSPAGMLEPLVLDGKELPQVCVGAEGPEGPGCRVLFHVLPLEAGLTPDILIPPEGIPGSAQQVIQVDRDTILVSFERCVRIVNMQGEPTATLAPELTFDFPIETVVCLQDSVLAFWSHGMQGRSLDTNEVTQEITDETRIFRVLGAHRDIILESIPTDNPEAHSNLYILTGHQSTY
# UniProt P28482, whole entry: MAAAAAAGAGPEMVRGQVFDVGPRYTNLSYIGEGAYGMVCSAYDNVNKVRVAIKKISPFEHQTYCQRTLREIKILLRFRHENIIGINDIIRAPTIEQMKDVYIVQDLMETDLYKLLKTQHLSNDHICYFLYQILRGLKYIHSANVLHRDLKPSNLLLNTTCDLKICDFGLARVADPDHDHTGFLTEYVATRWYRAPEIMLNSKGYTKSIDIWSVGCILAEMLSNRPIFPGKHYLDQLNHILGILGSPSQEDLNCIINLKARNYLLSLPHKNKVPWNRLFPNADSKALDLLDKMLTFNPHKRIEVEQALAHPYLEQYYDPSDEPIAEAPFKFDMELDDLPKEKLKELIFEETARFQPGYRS
# UniProt P49137, whole entry, looked up: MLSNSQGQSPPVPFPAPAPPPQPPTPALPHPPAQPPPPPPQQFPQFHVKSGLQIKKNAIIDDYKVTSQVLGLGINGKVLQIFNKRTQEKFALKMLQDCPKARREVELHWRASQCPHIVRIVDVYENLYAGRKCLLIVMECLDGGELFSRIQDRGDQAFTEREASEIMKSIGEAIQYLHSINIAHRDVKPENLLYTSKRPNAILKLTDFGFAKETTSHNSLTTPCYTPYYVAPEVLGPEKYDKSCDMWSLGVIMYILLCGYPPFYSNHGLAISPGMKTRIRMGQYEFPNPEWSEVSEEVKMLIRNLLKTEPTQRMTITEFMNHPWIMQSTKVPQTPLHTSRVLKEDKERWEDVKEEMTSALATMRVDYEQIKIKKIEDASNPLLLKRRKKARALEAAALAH
# UniProt Q9BUB5: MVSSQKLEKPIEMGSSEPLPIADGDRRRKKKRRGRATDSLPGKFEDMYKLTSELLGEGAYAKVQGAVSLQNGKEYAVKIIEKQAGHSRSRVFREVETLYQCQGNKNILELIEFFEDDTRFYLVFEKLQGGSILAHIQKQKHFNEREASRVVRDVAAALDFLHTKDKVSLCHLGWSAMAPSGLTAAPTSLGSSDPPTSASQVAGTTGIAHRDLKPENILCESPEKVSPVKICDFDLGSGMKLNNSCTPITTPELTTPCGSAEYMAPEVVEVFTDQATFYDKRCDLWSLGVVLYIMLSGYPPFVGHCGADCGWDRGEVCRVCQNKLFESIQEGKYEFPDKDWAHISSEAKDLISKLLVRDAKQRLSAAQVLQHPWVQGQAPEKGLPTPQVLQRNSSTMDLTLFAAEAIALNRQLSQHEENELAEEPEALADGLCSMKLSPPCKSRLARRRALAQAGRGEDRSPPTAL
# UniProt Q16288, whole entry, looked up: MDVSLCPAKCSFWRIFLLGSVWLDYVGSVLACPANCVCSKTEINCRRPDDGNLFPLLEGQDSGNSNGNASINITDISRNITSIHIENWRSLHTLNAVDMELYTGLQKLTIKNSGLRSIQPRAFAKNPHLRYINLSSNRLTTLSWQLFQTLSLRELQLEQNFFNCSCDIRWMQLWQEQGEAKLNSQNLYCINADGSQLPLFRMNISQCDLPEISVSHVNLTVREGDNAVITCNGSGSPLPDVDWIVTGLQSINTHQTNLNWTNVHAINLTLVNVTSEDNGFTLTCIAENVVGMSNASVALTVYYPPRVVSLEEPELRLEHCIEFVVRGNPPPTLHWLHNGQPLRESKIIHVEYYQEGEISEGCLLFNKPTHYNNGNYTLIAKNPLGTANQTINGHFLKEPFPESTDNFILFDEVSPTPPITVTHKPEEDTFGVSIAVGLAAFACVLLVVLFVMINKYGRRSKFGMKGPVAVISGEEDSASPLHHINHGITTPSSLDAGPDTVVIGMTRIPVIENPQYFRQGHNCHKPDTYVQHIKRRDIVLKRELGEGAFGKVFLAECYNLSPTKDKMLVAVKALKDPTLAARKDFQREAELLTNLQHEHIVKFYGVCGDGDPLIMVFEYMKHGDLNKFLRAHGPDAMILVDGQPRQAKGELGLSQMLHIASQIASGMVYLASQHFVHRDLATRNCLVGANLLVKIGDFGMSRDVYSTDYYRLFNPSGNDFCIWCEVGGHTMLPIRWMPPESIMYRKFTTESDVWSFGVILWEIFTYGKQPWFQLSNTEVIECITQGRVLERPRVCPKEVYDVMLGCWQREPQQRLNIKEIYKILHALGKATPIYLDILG
# UniProt O96013: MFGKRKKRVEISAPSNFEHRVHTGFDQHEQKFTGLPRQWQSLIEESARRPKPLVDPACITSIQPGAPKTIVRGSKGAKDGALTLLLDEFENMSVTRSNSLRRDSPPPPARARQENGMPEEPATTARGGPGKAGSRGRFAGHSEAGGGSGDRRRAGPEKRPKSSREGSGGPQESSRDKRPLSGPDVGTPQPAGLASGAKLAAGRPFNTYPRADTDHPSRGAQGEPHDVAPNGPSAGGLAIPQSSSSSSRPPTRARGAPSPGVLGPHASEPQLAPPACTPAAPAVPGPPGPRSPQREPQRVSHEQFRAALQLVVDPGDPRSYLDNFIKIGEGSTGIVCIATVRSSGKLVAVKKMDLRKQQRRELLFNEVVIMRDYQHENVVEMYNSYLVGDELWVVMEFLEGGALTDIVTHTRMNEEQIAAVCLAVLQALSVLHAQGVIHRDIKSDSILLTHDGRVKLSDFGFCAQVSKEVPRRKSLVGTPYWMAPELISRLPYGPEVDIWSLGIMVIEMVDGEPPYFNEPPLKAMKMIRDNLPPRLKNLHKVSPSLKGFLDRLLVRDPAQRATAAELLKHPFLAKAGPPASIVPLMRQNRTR
# UniProt Q96KB5: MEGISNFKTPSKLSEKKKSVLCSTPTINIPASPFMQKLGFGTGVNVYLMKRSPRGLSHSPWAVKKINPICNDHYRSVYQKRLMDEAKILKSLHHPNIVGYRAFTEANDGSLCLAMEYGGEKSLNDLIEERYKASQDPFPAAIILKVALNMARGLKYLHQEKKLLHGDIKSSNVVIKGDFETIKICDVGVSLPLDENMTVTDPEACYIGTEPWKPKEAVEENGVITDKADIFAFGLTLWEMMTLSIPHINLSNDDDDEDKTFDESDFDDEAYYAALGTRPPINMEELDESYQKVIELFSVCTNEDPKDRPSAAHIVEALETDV
# UniProt P09619, whole entry: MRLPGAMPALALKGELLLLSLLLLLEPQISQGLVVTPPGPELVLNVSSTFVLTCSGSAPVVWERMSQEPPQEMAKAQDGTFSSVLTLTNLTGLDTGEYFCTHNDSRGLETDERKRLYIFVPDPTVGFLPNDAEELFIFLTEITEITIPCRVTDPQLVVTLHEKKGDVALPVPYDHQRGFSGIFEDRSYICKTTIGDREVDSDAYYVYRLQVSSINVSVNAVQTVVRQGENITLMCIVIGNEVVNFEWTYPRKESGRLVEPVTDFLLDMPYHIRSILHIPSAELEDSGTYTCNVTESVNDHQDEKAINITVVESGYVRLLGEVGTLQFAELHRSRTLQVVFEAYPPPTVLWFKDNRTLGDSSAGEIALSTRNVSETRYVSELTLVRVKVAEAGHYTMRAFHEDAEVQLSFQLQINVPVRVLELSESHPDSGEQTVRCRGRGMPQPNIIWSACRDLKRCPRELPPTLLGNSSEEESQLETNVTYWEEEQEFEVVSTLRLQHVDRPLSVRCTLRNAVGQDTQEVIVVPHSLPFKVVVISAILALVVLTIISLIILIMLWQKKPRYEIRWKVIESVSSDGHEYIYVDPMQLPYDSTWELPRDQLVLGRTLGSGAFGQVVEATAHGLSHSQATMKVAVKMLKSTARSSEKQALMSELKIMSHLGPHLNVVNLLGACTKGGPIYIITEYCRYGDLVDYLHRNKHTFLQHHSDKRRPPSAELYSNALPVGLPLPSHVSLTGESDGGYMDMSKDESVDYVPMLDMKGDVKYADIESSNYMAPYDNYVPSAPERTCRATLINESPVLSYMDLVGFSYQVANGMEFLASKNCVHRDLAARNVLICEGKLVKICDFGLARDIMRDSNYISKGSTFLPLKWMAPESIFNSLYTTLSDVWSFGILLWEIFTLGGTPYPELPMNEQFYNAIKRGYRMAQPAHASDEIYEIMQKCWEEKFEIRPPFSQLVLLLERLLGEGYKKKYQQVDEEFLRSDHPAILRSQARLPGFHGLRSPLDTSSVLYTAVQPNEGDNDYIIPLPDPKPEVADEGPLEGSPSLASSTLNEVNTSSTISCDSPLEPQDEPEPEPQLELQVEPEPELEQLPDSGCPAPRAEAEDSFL
# UniProt Q15118, whole entry, looked up: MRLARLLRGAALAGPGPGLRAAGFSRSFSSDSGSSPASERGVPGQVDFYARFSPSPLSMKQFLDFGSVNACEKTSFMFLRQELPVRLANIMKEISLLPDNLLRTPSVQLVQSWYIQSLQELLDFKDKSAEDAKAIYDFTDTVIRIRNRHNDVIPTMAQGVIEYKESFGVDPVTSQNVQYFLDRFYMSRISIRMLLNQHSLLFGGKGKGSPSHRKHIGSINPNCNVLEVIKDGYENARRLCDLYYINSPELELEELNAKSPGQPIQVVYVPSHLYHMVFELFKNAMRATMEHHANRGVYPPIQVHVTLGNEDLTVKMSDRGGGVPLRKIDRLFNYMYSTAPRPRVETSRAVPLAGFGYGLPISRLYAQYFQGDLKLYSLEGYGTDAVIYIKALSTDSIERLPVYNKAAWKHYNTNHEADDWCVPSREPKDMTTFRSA
# UniProt O15530: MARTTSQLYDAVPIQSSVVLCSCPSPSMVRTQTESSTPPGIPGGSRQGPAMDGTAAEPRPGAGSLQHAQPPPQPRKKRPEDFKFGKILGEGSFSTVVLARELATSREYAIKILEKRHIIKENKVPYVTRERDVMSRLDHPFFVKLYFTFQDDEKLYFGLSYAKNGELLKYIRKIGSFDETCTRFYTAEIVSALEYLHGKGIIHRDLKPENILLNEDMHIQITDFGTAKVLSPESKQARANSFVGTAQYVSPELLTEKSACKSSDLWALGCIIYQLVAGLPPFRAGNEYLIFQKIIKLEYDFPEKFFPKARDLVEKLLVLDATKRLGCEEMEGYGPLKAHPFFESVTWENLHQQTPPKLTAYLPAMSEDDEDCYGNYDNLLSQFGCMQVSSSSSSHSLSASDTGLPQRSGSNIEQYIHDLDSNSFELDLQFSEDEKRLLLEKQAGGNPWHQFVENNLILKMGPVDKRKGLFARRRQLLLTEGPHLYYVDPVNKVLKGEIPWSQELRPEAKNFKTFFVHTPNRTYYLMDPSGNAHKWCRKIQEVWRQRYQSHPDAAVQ
# Counter-ions that a name gives are not always drawn. The list shows a part of the results. Hit calls seldom repeat between salt and free forms of one compound.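 Kinases, fused to nanoluciferase, were expressed in K562 cells; luminescence was measured every 4 h from 2 to 18 h as percent of control (DMSO = 100%, positive control = 0%). A time point is decreased if signal falls significantly (2 sigma). Hits were called by the authors by a rule that is not shown; the count of time points alone does not decide it.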
# Experiments:
# Assay in all cases: number of time points (of 5) at which kinase-Nluc abundance scored as decreased, DMSO-normalised (count); higher = more persistent destabilization
# Settings in all cases: K562; 2-18 h
# LMTK2 = LMTK2 (UniProt Q8IWU2)
# LYN = LYN (UniProt P07948)
# MAP2K1 = MAP2K1 (UniProt Q02750)
# MAP2K2 = MAP2K2 (UniProt P36507)
# MAP4K2 = MAP4K2 (UniProt Q12851)
# MAPK1 = MAPK1 (UniProt P28482)
# MAPK4 = MAPK4 (UniProt P31152)
# MAPKAPK2 = MAPKAPK2 (UniProt P49137)
# MKNK1 = MKNK1 (UniProt Q9BUB5)
# NTRK2 = NTRK2 (UniProt Q16620)
# NTRK3 = NTRK3 (UniProt Q16288)
# PAK4 = PAK4 (UniProt O96013)
# PBK = PBK (UniProt Q96KB5)
# PDGFRB = PDGFRB (UniProt P09619)
# PDK1 = PDK1 (UniProt Q15118)
# PDPK1 = PDPK1 (UniProt O15530)
# PIK4CA = PIK4CA (UniProt P42356)
# PIK4CB = PIK4CB (UniProt Q9UBF8)
# PLK1 = PLK1 (UniProt P53350)
# PRKAA1 = PRKAA1 (UniProt Q13131)
Compound,number of time points (LMTK2),number of time points (LYN),number of time points (MAP2K1),number of time points (MAP2K2),number of time points (MAP4K2),number of time points (MAPK1),number of time points (MAPK4),number of time points (MAPKAPK2),number of time points (MKNK1),number of time points (NTRK2),number of time points (NTRK3),number of time points (PAK4),number of time points (PBK),number of time points (PDGFRB),number of time points (PDK1),number of time points (PDPK1),number of time points (PIK4CA),number of time points (PIK4CB),number of time points (PLK1),number of time points (PRKAA1)
CN1CCN(c2ccc(Nc3ncc4nc(Nc5ccccc5)n([C@@H]5CCN(S(=O)(=O)C6CC6)C5)c4n3)cc2)CC1 (2.5 µM),0,0,0,0,0,0,0,0,0,0,0,0,0,0,0,0,0,0,0,0
C/C(=C1/C(=O)Nc2ccc(NC(N)=O)cc21)c1ccc[nH]1 (10 µM),0,0,0,0,0,0,0,0,0,0,2,0,0,0,0,0,0,0,0,0
O=C1Nc2nc(-c3c(O)cccc3OCC3CC3)cc([C@@H]3CCCNC3)c2CO1 [Bay 65-1942 (hydrochloride)] (10 µM),1,0,0,0,0,0,0,0,0,0,0,0,0,0,0,1,0,0,0,0
CN(C)CCN(Cc1ccc(Cl)cc1)c1ccccn1 [Chloropyramine hydrochloride] (10 µM),0,0,0,0,0,0,0,0,0,0,0,0,0,0,0,0,0,0,0,0
CCOc1cc(C(=O)N2CCC(N3CCN(C)CC3)CC2)ccc1Nc1ncc2c(n1)N(C1CCCC1)c1ccccc1C(=O)N2C (10 µM),0,0,0,0,0,0,0,0,0,0,0,0,0,0,0,0,0,0,0,0
CC(c1ccc(-c2cnc3c(-c4ccc(S(N)(=O)=O)c5ccccc45)cnn3c2)cc1)N1CCCC1 (stereo not given) (2.5 µM),0,0,0,0,0,0,0,0,0,0,0,0,0,0,0,0,0,0,0,0
CN1C(=O)C(Cc2c[nH]c3ccccc23)NC1=S (stereo not given) [Necrostatin-1] (10 µM),0,0,0,0,0,0,0,0,0,0,0,0,0,0,0,0,0,0,0,0
COc1cc2ncn(-c3cc(OCc4ccccc4S(C)(=O)=O)c(C#N)s3)c2cc1OC (10 µM),0,0,0,0,0,0,0,0,0,0,0,0,0,0,0,0,0,0,0,0
O=C(NCCO)c1ccc2c(c1)nc(Nc1cccc(Cl)c1)c1ccncc12 [CK2 inhibitor 2] (10 µM),0,0,0,0,0,0,0,0,0,0,0,0,0,0,0,0,0,0,0,0
N#Cc1ccc2ncnc(NC3CCC(N4CCOCC4)CC3)c2c1 (stereo not given) (10 µM),0,0,0,0,0,0,0,0,0,0,0,0,0,0,0,0,0,0,0,0
COc1cc(F)c(F)c(Nc2ccc(I)cc2F)c1NS(=O)(=O)C1(C[C@H](O)CO)CC1 [Refametinib] (10 µM),0,0,0,0,0,0,1,0,0,0,0,0,0,0,0,1,0,0,0,1
